Data taken from article PMC7862700.
The list shows a part of the results. Construct or isoform of the protein are uncertain.

What follows are sequences tested against T1, ELF2 (UniProt Q15723) (assay: DAPPL (digital affinity profiling via proximity ligation, sequencing)). Conditions: 10 mM Tris-HCl pH 7.5, 50 mM NaCl, 1 mM DTT, 4% glycerol, room temperature, 30 min; GST-TFs on glutathione beads, 16-mer random dsDNA library, 0.1% …; high values mean tight binding; double strand, one strand shown; scale: fold enrichment (6-mer frequency, TF over GST control).
T1 sequence: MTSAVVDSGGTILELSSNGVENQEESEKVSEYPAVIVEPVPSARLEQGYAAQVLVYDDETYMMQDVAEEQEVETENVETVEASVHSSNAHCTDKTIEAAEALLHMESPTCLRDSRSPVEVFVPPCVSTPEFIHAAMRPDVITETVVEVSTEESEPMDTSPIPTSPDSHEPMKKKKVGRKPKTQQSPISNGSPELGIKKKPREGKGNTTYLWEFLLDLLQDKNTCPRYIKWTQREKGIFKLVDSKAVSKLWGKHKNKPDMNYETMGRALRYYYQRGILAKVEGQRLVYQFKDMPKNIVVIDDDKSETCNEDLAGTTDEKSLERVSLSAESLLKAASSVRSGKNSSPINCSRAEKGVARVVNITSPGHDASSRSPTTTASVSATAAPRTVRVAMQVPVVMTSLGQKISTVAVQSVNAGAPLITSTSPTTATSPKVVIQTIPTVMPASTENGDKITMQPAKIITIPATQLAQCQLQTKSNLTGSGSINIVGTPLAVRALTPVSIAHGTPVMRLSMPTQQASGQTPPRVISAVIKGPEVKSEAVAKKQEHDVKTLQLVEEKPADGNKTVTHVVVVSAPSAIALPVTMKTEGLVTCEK

Sequence	binding signal
AACGTT	1.06
ACGTTC	1.24
TAATGC	1.18
CACTTC	5.01
TACTTC	4.89
CCGAAG	1.01
CCTCTC	1.34
TATAGT	1.09
ATGAAA	1.15
CAATAT	1.28
CTCCTT	1.8
GATGGC	1.29
TCTCCG	1.46
AACATC	1.51
AAGAAA	1.18
ACTCGC	1.09
TTCACC	1.32
GCTTTC	1.29
CATTTA	1.15
TGTTTG	1.3

Sequence	binding signal
TCCCGC	1.42
TACTCG	1.19
ATATAC	1.23
GGATCC	1.14
CACTCT	1.27
TACAAG	1
GATCCT	1.25
TTTGGC	1.2
GTAAAA	1.18
TGCGCT	1.22
TCCTCA	1.61
CGCTTC	2.63
CTAAAG	1.31
GCATTC	1.09
TATGTA	1.21
AAAAGG	1.11
CTTCAG	1.25
GCTAAT	1.11
AATTCC	2.36

As a working copy, part of the list above:
Sequence	binding signal
GTAAAA	1.18
TGCGCT	1.22
TCCTCA	1.61
CGCTTC	2.63
CTAAAG	1.31
GCATTC	1.09
TATGTA	1.21
AAAAGG	1.11
CTTCAG	1.25
GCTAAT	1.11
AATTCC	2.36
